Results published in publication PMC2946933.
Construct, isoform or probe ends are uncertain for at least one entry.

Columns and labels:
Hfq K56A = Hfq K56A (UniProt P0A6X3); test: SPR; settings: SPR: same buffer, 25 C, recombinant protein, label: 5'-32P (EMSA) or 5'-biotin (SPR), probe letters rebuilt from the primers and the genome
Hfq Y25A = Hfq Y25A (UniProt P0A6X3); test: SPR; settings: SPR: same buffer, 25 C, recombinant protein, label: 5'-32P (EMSA) or 5'-biotin (SPR), probe letters rebuilt from the primers and the genome
[1] = KD,agg, two-site parallel model

GCAGCGUUACAUUCCCAUCCACUGGGGAAAGACGCGGCGCUGAUUGGUGAAGUGGUGGAACGUAAAGGUGUUCGUCUUGCCGGUCUGUAUGGCGUGAAACGAACCCUCGAUUUACCACACGCCGAACCGCUUCCGCGUAUAUGCUAAUAAAAUUCUAAAUCUCCUAUAGUUAGUCAAUGACCUUUUGCACCGCUUUGCGGUGCUUUCCUGGAAGAACAAAAUGUCAUAUACACCGAUGAGUGAUCUCGGACAACAAGGGUUGUUCGACAUCACUCGGACAAAUAUUGGAUCCGCUCGG [fhlA220 mRNA]
Kd (Hfq K56A; KD2, microscopic, ka2 2e5 M-1s-1, kd2 7e-2 s-1): 400 nM | Kd (Hfq K56A; [1]): 131 nM | Kd (Hfq Y25A; KD1, microscopic, ka1 2e6 M-1s-1, kd1 3.0e-1 s-1): 160 nM | Kd (Hfq Y25A; [1]): 176 nM
